These are yes or no findings as the source states them, for the method shown. Some results given as binding are weak or reduced against the parent protein; the word gives no strength. Tags and fused reporters may be left off the sequences shown.
How the values were obtained:
[1] = biological target: recombinant human CD137-Fc fusion protein (#838-4B-100, R&D Systems) (human) (UniProt Q07011); assay: SPR, CD137-Fc captured by anti-human Fc antibody on CM5 chip
[2] = biological target: recombinant human CD137-Fc fusion protein (#838-4B-100, R&D Systems) (human) (UniProt Q07011); assay: dual-binding ELISA, CD137-Fc coated, biotinylated GPC3 detected
[3] = biological target: recombinant human GPC3 (R&D Systems #2119-GP-050/CF) (human) (UniProt P51654); assay: as above

The chains behind the UniProt entries cited, without tags or fusion partners. Residues count along the entry.
UniProt Q07011, residues 24-186: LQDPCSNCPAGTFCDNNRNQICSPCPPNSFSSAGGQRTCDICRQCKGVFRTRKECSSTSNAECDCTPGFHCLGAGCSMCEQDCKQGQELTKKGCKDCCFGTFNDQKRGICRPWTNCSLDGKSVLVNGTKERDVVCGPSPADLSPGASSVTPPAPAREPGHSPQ
UniProt P51654, residues 25-559: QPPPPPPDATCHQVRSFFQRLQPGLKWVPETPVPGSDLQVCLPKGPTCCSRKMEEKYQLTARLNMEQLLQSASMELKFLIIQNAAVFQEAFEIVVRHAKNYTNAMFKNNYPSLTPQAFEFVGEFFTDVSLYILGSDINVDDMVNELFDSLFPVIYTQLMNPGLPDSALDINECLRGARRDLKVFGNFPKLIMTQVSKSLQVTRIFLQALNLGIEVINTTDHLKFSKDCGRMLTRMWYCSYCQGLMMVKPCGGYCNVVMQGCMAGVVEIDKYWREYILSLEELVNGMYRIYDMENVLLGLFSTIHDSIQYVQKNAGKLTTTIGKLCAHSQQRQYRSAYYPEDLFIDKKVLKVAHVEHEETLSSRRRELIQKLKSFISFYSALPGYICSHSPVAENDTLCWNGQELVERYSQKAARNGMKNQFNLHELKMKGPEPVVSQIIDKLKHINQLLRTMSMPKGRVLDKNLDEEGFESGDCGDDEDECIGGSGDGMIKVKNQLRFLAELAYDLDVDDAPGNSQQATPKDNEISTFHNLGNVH

Measured: binding

B1: bispecific fusion polypeptide of SEQ ID NO: 47 (designed binder)
chain: QDSTSDLIPAPPLSKVPLQQNFQDNQFQGKWYVVGVAGNGMLREDKDPLKMRATIYELKEDKSYDVTSVAFRNKKCHYKIGTFVPGSQPGEFTLGQIKSGPGETSNLVRVVSTNYNQHAMVFFKEVRQNREWFFITLYGRTKELTSELKENFIRFSKSLGLPENHIVFPVPIDQCIDGGGGGSGGGGSQDSTSDLIPAPPLSKVPLQQNFQDNQFHGKWYVVGQAGNIRLREDKDPIKMMATIYELKEDKSYDVTMVKFDDKKCMYDIWTFVPGSQPGEFTLGKIKSFPGHTSSLVRVVSTNYNQHAMVFFKFVFQNREEFYITLYGRTKELTSELKENFIRFSKSLGLPENHIVFPVPIDQCIDGGGGGSGGGGSQDSTSDLIPAPPLSKVPLQQNFQDNQFHGKWYVVGQAGNIRLREDKDPIKMMATIYELKEDKSYDVTMVKFDDKKCMYDIWTFVPGSQPGEFTLGKIKSFPGHTSSLVRVVSTNYNQHAMVFFKFVFQNREEFYITLYGRTKELTSELKENFIRFSKSLGLPENHIVFPVPIDQCIDG
binds: all assays above

B2: bispecific fusion polypeptide of SEQ ID NO: 46 (designed binder)
chain: QDSTSDLIPAPPLSKVPLQQNFQDNQFQGKWYVVGVAGNGMLREDKDPLKMRATIYELKEDKSYDVTSVAFRNKKCHYKIGTFVPGSQPGEFTLGQIKSGPGETSNLVRVVSTNYNQHAMVFFKEVRQNREWFFITLYGRTKELTSELKENFIRFSKSLGLPENHIVFPVPIDQCIDGGGGGSGGGGSQDSTSDLIPAPPLSKVPLQQNFQDNQFHGKWYVVGQAGNIRLREDKDPIKMMATIYELKEDKSYDVTMVKFDDKKCMYDIWTFVPGSQPGEFTLGKIKSFPGHTSSLVRVVSTNYNQHAMVFFKFVFQNREEFYITLYGRTKELTSELKENFIRFSKSLGLPENHIVFPVPIDQCIDG
binds: all assays above
